Chains of the proteins cited; added tags and fusions are not shown.
UniProt Q0JBA9, entry or part of it: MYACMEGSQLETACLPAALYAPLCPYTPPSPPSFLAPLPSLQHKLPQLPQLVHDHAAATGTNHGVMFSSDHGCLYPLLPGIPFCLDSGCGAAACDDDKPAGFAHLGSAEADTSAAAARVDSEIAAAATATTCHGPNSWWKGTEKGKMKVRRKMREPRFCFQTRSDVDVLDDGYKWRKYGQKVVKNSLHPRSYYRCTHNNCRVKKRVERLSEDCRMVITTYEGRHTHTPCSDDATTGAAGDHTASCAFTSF

This is one part of the list.
Each sequence was assayed against OsWRKY34 (Oryza sativa, UniProt Q0JBA9 1-250) (assay: protein-binding microarray (RPBM); PBS, 2% BSA, 51.3 ng/ul salmon testes DNA, 50 uM zinc acetate, 200 nM TF, 25 C, 1 h; high values mean tight binding). Details: protein: recombinant; tags: N-terminal polyhistidine and DsRed monomer fusion (pET32a); label: CyDye5-dUTP incorporated in the synthesized complementary strand; 3' TTTTT single-stranded linker to array surface; dsDNA, one strand shown.
Method in brief: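 The binding signal for each feature is its fluorescence intensity in arbitrary units. An Axon 4000B scanner was used to read a custom Agilent array that had been made double-stranded with Cy5-dUTP primer extension, blocked with 2% BSA, incubated at 25 °C for 1 h with 200 nM protein in PBS, 2% BSA, salmon testes DNA and 50 µM zinc acetate, and washed. The protein was an N-terminal polyhistidine–DsRed transcription factor fusion from E. coli BL21-CodonPlus, purified on Ni–NTA.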
For “ACACGCCGACACGTGCCATCCCCATCCACCCACACGTGTCCGGAGTCACCTAGTGCAG”, the binding signal was 9490 fluorescence intensity (a.u.). For “CTCTCTACGGCTAGCTACTCCCATTTGTGGTCAACACCTCCGGAGTCACCTAGTGCAG”, the binding signal was 10500 fluorescence intensity (a.u.). “AGCTCCACGACAACGGGCGCCTGCCTTTTTTCTGCCCATGCGGAGTCACCTAGTGCAG” was tested, and the binding signal was 8760 fluorescence intensity (a.u.). “CCTCCCGGCAACCCGCGTCCTCGCTGCCTCCGCGCTGCTCCGGAGTCACCTAGTGCAG” was tested, and the binding signal was 8140 fluorescence intensity (a.u.). In the case of “CCGGTGATCTCTCGCTTCGATTCGATTCTCTCGTGCAACTCGGAGTCACCTAGTGCAG”, the binding signal is reported as 9220 fluorescence intensity (a.u.). “AGTCACGAATCAAACAACCCCTTAAACTGTATTTGATTGTCGGAGTCACCTAGTGCAG” was tested, and the binding signal was 8060 fluorescence intensity (a.u.). For “TACGCTTTGGGGTGTGCCGTGTGCCTATATATATATTCAGCGGAGTCACCTAGTGCAG”, the binding signal was 8160 fluorescence intensity (a.u.). For “TGAACCTGTAAACACAAACTGATCTCTCTTTATTTTCAGTCGGAGTCACCTAGTGCAG”, the binding signal was 10400 fluorescence intensity (a.u.). In the case of “CTCCCTGTCCCTATCATTCCCATTGCCCGATTTAGCGCTCCGGAGTCACCTAGTGCAG”, the binding signal is reported as 8780 fluorescence intensity (a.u.). In the case of “AGACGAATTGGACTCCTATACCATATATCTCCCGCGTGCTCGGAGTCACCTAGTGCAG”, the binding signal is reported as 8400 fluorescence intensity (a.u.). “ACCGTCCTCCTCGTCACCCACCAGCTCGACTTCCTCCGCACGGAGTCACCTAGTGCAG” was tested, and the binding signal was 8200 fluorescence intensity (a.u.). “TTCCATTTCGTCTCCTTGGCCGCTGCGTTTCCCGGCTGCACGGAGTCACCTAGTGCAG” was tested, and the binding signal was 10700 fluorescence intensity (a.u.). With “TGTGTCTGTCCGTGGCGTAGTGTCTGTCATGTGGGGTACACGGAGTCACCTAGTGCAG” the binding signal was 10000 fluorescence intensity (a.u.). “GCGAGAGGGGACTGGGGAGGGGAGGGGCGGCGCTCGCTGGCGGAGTCACCTAGTGCAG” was tested, and the binding signal was 12500 fluorescence intensity (a.u.). “CCCAACCACCACCACCACACACACGGGCCACACACACCGCCGGAGTCACCTAGTGCAG” was tested, and the binding signal was 8790 fluorescence intensity (a.u.). For “AGCCTTTTAACAGCAACTTCCATGCCATCTTCCAATGTTCCGGAGTCACCTAGTGCAG”, the binding signal was 9300 fluorescence intensity (a.u.). For “CACATCGGTGCACTCCTACTACTACTACCAGTCTATACCACGGAGTCACCTAGTGCAG”, the binding signal was 8500 fluorescence intensity (a.u.). In the case of “CCGCTCTGCTCTGGTCTGCTCTGCTGCGAGGGTGGGTGTTCGGAGTCACCTAGTGCAG”, the binding signal is reported as 12700 fluorescence intensity (a.u.). “ATCGATTCTTCCCAGCTACGCGACTCTTCCTCGCTTTCTCCGGAGTCACCTAGTGCAG” was tested, and the binding signal was 14000 fluorescence intensity (a.u.). “CTGGTTAACTTAGTTATTGTGTTTCGATCCAACGAGTTCCCGGAGTCACCTAGTGCAG” was tested, and the binding signal was 9050 fluorescence intensity (a.u.). For “AGGATCGAGGAATTCAGTTAAGCAAAAATATTTATACATGCGGAGTCACCTAGTGCAG”, the binding signal was 47600 fluorescence intensity (a.u.). “ACTCTCTCATCATCTTTGGTCATTACGTTCAAAATTTTGTCGGAGTCACCTAGTGCAG” was tested, and the binding signal was 10200 fluorescence intensity (a.u.). With “AAACGGTTCGATCTATTCTCGTCTCCTCTCGTTTTCAGTCCGGAGTCACCTAGTGCAG” the binding signal was 12500 fluorescence intensity (a.u.). In the case of “AGGTGTGTATCGTACCGTGGCGGGCGCTTTCCTGGTGGGGCGGAGTCACCTAGTGCAG”, the binding signal is reported as 10200 fluorescence intensity (a.u.). “TTTGTCCATTCGGCCCATGTCCAACACGCCCCACGGCCCTCGGAGTCACCTAGTGCAG” was tested, and the binding signal was 13500 fluorescence intensity (a.u.). With “TCTTTTCATCCCCAACCAGTCCTTTTTTCTTCTGTTTATTCGGAGTCACCTAGTGCAG” the binding signal was 11700 fluorescence intensity (a.u.). For “TTTCTGCTTCTGGTTTGGTGTGGATTGTGCAGGGGAGTTTCGGAGTCACCTAGTGCAG”, the binding signal was 12000 fluorescence intensity (a.u.). For “CCTATATGGCCCAACATGTCATCTCCCTACTCCCTCTTCTCGGAGTCACCTAGTGCAG”, the binding signal was 8560 fluorescence intensity (a.u.). In the case of “TATGACGCCGTTGACTTATTGACTAACGTTTGACCATTCGCGGAGTCACCTAGTGCAG”, the binding signal is reported as 21500 fluorescence intensity (a.u.). In the case of “TCATCCTTTTGTCATTCAGAATTTCCCCATTTTTCTTGTTCGGAGTCACCTAGTGCAG”, the binding signal is reported as 8060 fluorescence intensity (a.u.). For “CTACATTTTTTTTCAATTGACGCACACAATCTTTCTATATCGGAGTCACCTAGTGCAG”, the binding signal was 8730 fluorescence intensity (a.u.). With “GGTTAGGGTTAGATTTGTTCCAACTATTCGGTGAGCTCCTCGGAGTCACCTAGTGCAG” the binding signal was 10300 fluorescence intensity (a.u.). With “ACTCACACACTTATATCACCGTTGGTAATGGTCACTCTATCGGAGTCACCTAGTGCAG” the binding signal was 9210 fluorescence intensity (a.u.). For “CTTCTCTCTATACAATCTCCCAATGTTTCAGTCTTCAGATCGGAGTCACCTAGTGCAG”, the binding signal was 8740 fluorescence intensity (a.u.). In the case of “CTCTCTCTCATCTCTCGTCGTTTTCTCTCTCCTCGATCGACGGAGTCACCTAGTGCAG”, the binding signal is reported as 14600 fluorescence intensity (a.u.). “AGGACAGAGGAGAGGGGAGGGGTAATATGTGTCCAATAATCGGAGTCACCTAGTGCAG” was tested, and the binding signal was 10500 fluorescence intensity (a.u.). In the case of “TCTCCTACGCGCTGCCGATCTTCTTCCGGGTGACGACGGCCGGAGTCACCTAGTGCAG”, the binding signal is reported as 10200 fluorescence intensity (a.u.). For “GGCAGCCATTTTTTCTTTTTTTTTTTCGCTCGTCGGAATTCGGAGTCACCTAGTGCAG”, the binding signal was 8710 fluorescence intensity (a.u.). With “GATGATATCGACGACCGGAGAGGGGTGGGACGAGGAGATGCGGAGTCACCTAGTGCAG” the binding signal was 8290 fluorescence intensity (a.u.). In the case of “ATTAGTGTCGTGTTGTATAGTTTTTTTTTCTTAATTTAATCGGAGTCACCTAGTGCAG”, the binding signal is reported as 12900 fluorescence intensity (a.u.). For “TTATACTTTCTCTTTTTTTCACGTGTATATTTTCTAAACCCGGAGTCACCTAGTGCAG”, the binding signal was 9610 fluorescence intensity (a.u.). In the case of “TCCTTTCCCCAGCATTTCCTCCCTTTTGTTTTTTGATGCACGGAGTCACCTAGTGCAG”, the binding signal is reported as 8980 fluorescence intensity (a.u.). In the case of “TGGGTGGGTTGGGTGGGTGGGTGGGTGCGCGGCGGGTATGCGGAGTCACCTAGTGCAG”, the binding signal is reported as 32800 fluorescence intensity (a.u.). “CCATTGAGGTTCTTTGCTTCCACCATTCGAAACACCCTCTCGGAGTCACCTAGTGCAG” was tested, and the binding signal was 10600 fluorescence intensity (a.u.). With “GCCTTCTCTCTCCGGTTTTCTCTCTCTTCCACCTATGATTCGGAGTCACCTAGTGCAG” the binding signal was 8360 fluorescence intensity (a.u.). “ACCTTTGGTTCCCGCCATTTCCTCCCAACCCATCCCCTCCCGGAGTCACCTAGTGCAG” was tested, and the binding signal was 8500 fluorescence intensity (a.u.). For “AACTGTTTTGATTTTTTTTTCTCTGGTGTTTCATTGGCGTCGGAGTCACCTAGTGCAG”, the binding signal was 14400 fluorescence intensity (a.u.). In the case of “GGCTGCATCTTTATGGATCTCACATTGCATTGTCGTACTGCGGAGTCACCTAGTGCAG”, the binding signal is reported as 9300 fluorescence intensity (a.u.). With “CCTCCCTCACCGTCTTCCGCCTCGCCATCTCCAGCTCCGACGGAGTCACCTAGTGCAG” the binding signal was 10100 fluorescence intensity (a.u.). “TAGCCCCAAATCGATTCCTCATCCTGCCCGATGCAAGTGCCGGAGTCACCTAGTGCAG” was tested, and the binding signal was 8300 fluorescence intensity (a.u.). In the case of “TTTTCTTGTTTTTAATTACTCTTATCTACTTGATATTTGCCGGAGTCACCTAGTGCAG”, the binding signal is reported as 11000 fluorescence intensity (a.u.). “TTTACTACTTAACCCTGTCTAGTCTCTTATGACCAGCCGTCGGAGTCACCTAGTGCAG” was tested, and the binding signal was 8510 fluorescence intensity (a.u.). “CACCCAGAAATTCCCCGAGCCGTGCCGTCCAACACCACTCCGGAGTCACCTAGTGCAG” was tested, and the binding signal was 9260 fluorescence intensity (a.u.). With “AGGCCATGTGAGTAACCGATACCCATATTCTCAACACATACGGAGTCACCTAGTGCAG” the binding signal was 8210 fluorescence intensity (a.u.).
